{"source": "patent US12169196B2", "about": "“Human iPSC-based drug testing platform for muscular dystrophy” (The Johns Hopkins University, priority 2019, dated 2024)", "key": {"SMAD2/3": {"system": "SMAD2/3", "test": "Western blot of phosphorylated SMAD2/3 in D2 myoblasts", "format": "cell-based, human", "conditions": "fenofibrate 8 μM together with TGFβ1 recombinant protein 40 ng/ml, 24 h"}, "[1]": {"test": "Blood content analysis of treated mdx mice", "format": "in vivo, mouse", "conditions": "fenofibrate 0.1% w/w diet, 8 weeks"}, "mdx^5cv mice [2]": {"system": "mdx^5cv mice", "test": "Evans blue staining and central nucleated fiber histology", "format": "in vivo, mouse", "conditions": "8 weeks treatment", "text": "(§1) All animal experiments were approved by the Institutional Animal Care and Use Committee (IACUC) of The Johns Hopkins University, School of Medicine (Baltimore, Maryland). Mdx^5cv (B6Ros.Cg-Dmdmdx-5Cv/J) were obtained from The Jackson Laboratory. Mice were maintained in a 12-h light cycle (7 am-7 pm) with ad libitum access to food and water. […] Ginsenoside Rd was suspended in saline containing 10% 1,3-propanediol as vector.\nGastrocnemius, tibialis anterior, and diaphragm muscles were embedded in OCT, frozen in isopentane, and cross-sectioned (˜2-10 μm thickness). The sections were also stained with DAPI to visualize nuclei. In mice where Evans blue dye (EBD, 10 mg/ml) was used to evaluate membrane damage, EBD was injected at 0.05 ml/10 g intraperitoneally, 24 hours before sacrificing the mice. To evaluate EBD staining, gastrocnemius muscle sections were fixed with acetone and imaged with fluorescence microscopy. The area of EBD as a percentage of total area was calculated. To evaluate the number of central nucleated fibers, sections of the tibialis anterior muscle were stained with hematoxylin and eosin. Central nucleated fiber number was counted and analyzed against total fiber number. Diaphragm sections (10 μm) were stained with Masson's trichrome to determine collagen content. The stained areas were quantified against the total area."}, "mdx^5cv mice [3]": {"system": "mdx^5cv mice", "test": "Tibialis anterior muscle strength and rate of fatigue", "format": "in vivo, mouse", "text": "as §1\nTibialis anterior muscle strength (maximal isometric force) and rate of fatigue were measured. Briefly, animals were anaesthetized with 3-5% isoflurane and placed in a supine position. The tibia was stabilized and the distal tendon of the tibialis anterior (TA) was surgically released and attached to the load cell (FT03, Grass Instruments, Warwick, RI). The load cell was adjusted via a micromanipulator to stretch the muscle to resting length (aka, optimal length). TA contraction was then triggered via subcutaneous stimulation of the fibular nerve, and the resulting force generated was sampled at 1 kHz and analyzed with acquisition software (PolyVIEW™ 16, Grass Instruments). After contractile function experiments, animals were euthanized and the TAs were harvested and weighed. […] To provide an index of fatigue, muscle tension was measured after 5 minutes of tetanic stimulation (200 ms train duration) repeated at 1 Hz and expressed as a percentage of initial tension."}, "mdx^5cv mice [4]": {"system": "mdx^5cv mice", "test": "Quadriceps strength and susceptibility to injury", "format": "in vivo, mouse", "conditions": "compared with sham control", "text": "as §1\nIn vivo muscle physiology. Quadriceps strength (maximal isometric torque) and susceptibility to injury were assessed in vivo as described (69, 70). Briefly, animals were anaesthetized with 3-5% isoflurane and placed in a supine position. The thigh was stabilized and the ankle was secured on to a lever arm. The knee was aligned with the axis of the stepper motor (model T8904, NMB Technologies, Chatsworth, CA, USA) and a torque sensor (QWFK-8M, Sensotec, Columbus, OH, USA), and the femoral nerve was stimulated via subcutaneous needle electrodes. […] The position of the leg that results in optimal muscle length has been previously described and maximum isometric torque was measured in Newton-millimeters (Nmm). […] Loss in maximal isometric torque was measured 5 min after the last lengthening contraction. […]"}, "myostatin": {"system": "myostatin", "conditions": "arthritic rats, reported study; cited from earlier work"}, "[5]": {"conditions": "small lung cancer patients, reported study; cited from earlier work"}}, "note": "For at least one compound, name, drawing or mass did not settle the structure.", "data": [{"smiles": "CC(C)OC(=O)C(C)(C)Oc1ccc(C(=O)c2ccc(Cl)cc2)cc1", "note": "[fenofibrate]", "values": [{"measurement": "SMAD2/3 phosphorylation", "setting": "SMAD2/3", "result": "reduced"}, {"measurement": "cholesterol in the blood", "setting": "[1]", "result": "increasing"}, {"measurement": "high-density lipoprotein (HDL) in the blood", "setting": "[1]", "result": "increased"}, {"measurement": "level of triglyceride in the blood", "setting": "[1]", "result": "decreased"}, {"measurement": "high-density lipoprotein (HDL) in the blood", "setting": "[1]; listed as Fenofibrate", "result": "increasing"}, {"measurement": "level of triglyceride in the blood", "setting": "[1]; listed as Fenofibrate", "result": "lowered"}, {"measurement": "number of Evans blue dye positive fibers", "setting": "mdx^5cv mice [2]; gastrocnemius", "result": "not significantly different"}, {"measurement": "central nucleated fibers", "setting": "mdx^5cv mice [2]; tibialis anterior", "result": "not significantly different"}, {"measurement": "susceptibility of TA muscles to fatigue (repeated maximal isometric contractions)", "setting": "mdx^5cv mice [3]; compared to mdx TA muscles", "result": "less susceptible to fatigue"}, {"measurement": "maximal isometric force generated by tibialis anterior (TA)", "setting": "mdx^5cv mice [3]; compared with sham control", "result": "no significant difference"}, {"measurement": "maximal isometric force generated by quadriceps muscle", "setting": "mdx^5cv mice [4]", "result": "no significant difference"}, {"measurement": "expression of myostatin in skeletal muscle", "setting": "myostatin", "result": "inhibited the expression of myostatin"}, {"measurement": "glucocorticoid levels", "setting": "[5]", "result": "decrease glucocorticoid levels"}]}]}
